Measured values from patent publication US20110038885A1 (priority 2007, published 2011).
Numbered stars: 1 amine (or outer) side, 2 acyl side, 3 side chain; on linkers, the order of the positions; unused ones are H or OH. Bridge positions count the residues as written; N and C are the ends. Square brackets hold non-standard residues; d marks the D form. Side chains are listed from the residue outwards. * marks the point of attachment. γGlu = O=C(O)[C@H](CCC(=O)[*:2])N[*:1]; Decanoyl = CCCCCCCCCC(=O)*; Dap = NC[C@H](N)C(=O)O

Test: general procedure: Fmoc solid-phase peptide synthesis; Rink Amide MBHA resin (0.58 mmol/g or 0.78 mmol/g); Wang resin for C-terminal acids; DIC/HOBt
Details: whole synthesis, analytical HPLC, scale of the general procedure 0.090 mmol

## H-K([γGlu-Decanoyl])CLDPKQKWIQC-NH2 (disulfide 2-12; SMILES CCCCCCCCCC(=O)N[C@@H](CCC(=O)NCCCC[C@H](N)C(=O)N[C@H]1CSSC[C@@H](C(N)=O)NC(=O)[C@H](CCC(N)=O)NC(=O)[C@H]([C@@H](C)CC)NC(=O)[C@H](Cc2c[nH]c3ccccc23)NC(=O)[C@H](CCCCN)NC(=O)[C@H](CCC(N)=O)NC(=O)[C@H](CCCCN)NC(=O)[C@@H]2CCCN2C(=O)[C@H](CC(=O)O)NC(=O)[C@H](CC(C)C)NC1=O)C(=O)O)
  purity (crude or final not stated): 94%

## H-KCQKWIQC-NH2 (disulfide 2-8; SMILES CC[C@H](C)[C@@H]1NC(=O)[C@H](Cc2c[nH]c3ccccc23)NC(=O)[C@H](CCCCN)NC(=O)[C@H](CCC(N)=O)NC(=O)[C@@H](NC(=O)[C@@H](N)CCCCN)CSSC[C@@H](C(N)=O)NC(=O)[C@H](CCC(N)=O)NC1=O)
  purity (crude or final not stated): 97.6%

## H-KCWIQC-NH2 (disulfide 2-6; SMILES CC[C@H](C)[C@@H]1NC(=O)[C@H](Cc2c[nH]c3ccccc23)NC(=O)[C@@H](NC(=O)[C@@H](N)CCCCN)CSSC[C@@H](C(N)=O)NC(=O)[C@H](CCC(N)=O)NC1=O)
  purity (crude or final not stated): 96.5%

## H-KQCKWIQC-NH2 (disulfide 3-8; SMILES CC[C@H](C)[C@@H]1NC(=O)[C@H](Cc2c[nH]c3ccccc23)NC(=O)[C@H](CCCCN)NC(=O)[C@@H](NC(=O)[C@H](CCC(N)=O)NC(=O)[C@@H](N)CCCCN)CSSC[C@@H](C(N)=O)NC(=O)[C@H](CCC(N)=O)NC1=O)
  purity (crude or final not stated): 95%

## H-KWCIQC-NH2 (disulfide 3-6; SMILES CC[C@H](C)[C@@H]1NC(=O)[C@@H](NC(=O)[C@H](Cc2c[nH]c3ccccc23)NC(=O)[C@@H](N)CCCCN)CSSC[C@@H](C(N)=O)NC(=O)[C@H](CCC(N)=O)NC1=O)
  purity (crude or final not stated): 90%

## H-LCDPKQKWIQC-NH2 (disulfide 2-11; SMILES CC[C@H](C)[C@@H]1NC(=O)[C@H](Cc2c[nH]c3ccccc23)NC(=O)[C@H](CCCCN)NC(=O)[C@H](CCC(N)=O)NC(=O)[C@H](CCCCN)NC(=O)[C@@H]2CCCN2C(=O)[C@H](CC(=O)O)NC(=O)[C@@H](NC(=O)[C@@H](N)CC(C)C)CSSC[C@@H](C(N)=O)NC(=O)[C@H](CCC(N)=O)NC1=O)
  purity (crude or final not stated): 92%

## H-LDCPKQKWIQC-NH2 (disulfide 3-11; SMILES CC[C@H](C)[C@@H]1NC(=O)[C@H](Cc2c[nH]c3ccccc23)NC(=O)[C@H](CCCCN)NC(=O)[C@H](CCC(N)=O)NC(=O)[C@H](CCCCN)NC(=O)[C@@H]2CCCN2C(=O)[C@@H](NC(=O)[C@H](CC(=O)O)NC(=O)[C@@H](N)CC(C)C)CSSC[C@@H](C(N)=O)NC(=O)[C@H](CCC(N)=O)NC1=O)
  purity (crude or final not stated): 96%

## H-LDPCKQKWIQC-NH2 (disulfide 4-11; SMILES CC[C@H](C)[C@@H]1NC(=O)[C@H](Cc2c[nH]c3ccccc23)NC(=O)[C@H](CCCCN)NC(=O)[C@H](CCC(N)=O)NC(=O)[C@H](CCCCN)NC(=O)[C@@H](NC(=O)[C@@H]2CCCN2C(=O)[C@H](CC(=O)O)NC(=O)[C@@H](N)CC(C)C)CSSC[C@@H](C(N)=O)NC(=O)[C@H](CCC(N)=O)NC1=O)
  purity (crude or final not stated): 90.2%

## H-LDPKQCKWIQC-NH2 (disulfide 6-11; SMILES CC[C@H](C)[C@@H]1NC(=O)[C@H](Cc2c[nH]c3ccccc23)NC(=O)[C@H](CCCCN)NC(=O)[C@@H](NC(=O)[C@H](CCC(N)=O)NC(=O)[C@H](CCCCN)NC(=O)[C@@H]2CCCN2C(=O)[C@H](CC(=O)O)NC(=O)[C@@H](N)CC(C)C)CSSC[C@@H](C(N)=O)NC(=O)[C@H](CCC(N)=O)NC1=O)
  purity (crude or final not stated): 86%

## H-LDPKQKCWIQC-NH2 (disulfide 7-11; SMILES CC[C@H](C)[C@@H]1NC(=O)[C@H](Cc2c[nH]c3ccccc23)NC(=O)[C@@H](NC(=O)[C@H](CCCCN)NC(=O)[C@H](CCC(N)=O)NC(=O)[C@H](CCCCN)NC(=O)[C@@H]2CCCN2C(=O)[C@H](CC(=O)O)NC(=O)[C@@H](N)CC(C)C)CSSC[C@@H](C(N)=O)NC(=O)[C@H](CCC(N)=O)NC1=O)
  purity (crude or final not stated): 87%

## H-LDPKQKWCIQC-NH2 (disulfide 8-11; SMILES CC[C@H](C)[C@@H]1NC(=O)[C@@H](NC(=O)[C@H](Cc2c[nH]c3ccccc23)NC(=O)[C@H](CCCCN)NC(=O)[C@H](CCC(N)=O)NC(=O)[C@H](CCCCN)NC(=O)[C@@H]2CCCN2C(=O)[C@H](CC(=O)O)NC(=O)[C@@H](N)CC(C)C)CSSC[C@@H](C(N)=O)NC(=O)[C@H](CCC(N)=O)NC1=O)
  purity (crude or final not stated): 88%

## H-PCKQKWIQC-NH2 (disulfide 2-9; SMILES CC[C@H](C)[C@@H]1NC(=O)[C@H](Cc2c[nH]c3ccccc23)NC(=O)[C@H](CCCCN)NC(=O)[C@H](CCC(N)=O)NC(=O)[C@H](CCCCN)NC(=O)[C@@H](NC(=O)[C@@H]2CCCN2)CSSC[C@@H](C(N)=O)NC(=O)[C@H](CCC(N)=O)NC1=O)
  purity (crude or final not stated): 97.6%

## H-PKCQKWIQC-NH2 (disulfide 3-9; SMILES CC[C@H](C)[C@@H]1NC(=O)[C@H](Cc2c[nH]c3ccccc23)NC(=O)[C@H](CCCCN)NC(=O)[C@H](CCC(N)=O)NC(=O)[C@@H](NC(=O)[C@H](CCCCN)NC(=O)[C@@H]2CCCN2)CSSC[C@@H](C(N)=O)NC(=O)[C@H](CCC(N)=O)NC1=O)
  purity (crude or final not stated): 97.3%

## H-PKQCKWIQC-NH2 (disulfide 4-9; SMILES CC[C@H](C)[C@@H]1NC(=O)[C@H](Cc2c[nH]c3ccccc23)NC(=O)[C@H](CCCCN)NC(=O)[C@@H](NC(=O)[C@H](CCC(N)=O)NC(=O)[C@H](CCCCN)NC(=O)[C@@H]2CCCN2)CSSC[C@@H](C(N)=O)NC(=O)[C@H](CCC(N)=O)NC1=O)
  purity (crude or final not stated): 95.8%

## H-WCIQC-NH2 (disulfide 2-5; SMILES CC[C@H](C)[C@@H]1NC(=O)[C@@H](NC(=O)[C@@H](N)Cc2c[nH]c3ccccc23)CSSC[C@@H](C(N)=O)NC(=O)[C@H](CCC(N)=O)NC1=O)
  purity (crude or final not stated): 92%

## H-[dC]LDPKQKWIQC-NH2 (disulfide 1-11; SMILES CC[C@H](C)[C@@H]1NC(=O)[C@H](Cc2c[nH]c3ccccc23)NC(=O)[C@H](CCCCN)NC(=O)[C@H](CCC(N)=O)NC(=O)[C@H](CCCCN)NC(=O)[C@@H]2CCCN2C(=O)[C@H](CC(=O)O)NC(=O)[C@H](CC(C)C)NC(=O)[C@H](N)CSSC[C@@H](C(N)=O)NC(=O)[C@H](CCC(N)=O)NC1=O)
  purity (crude or final not stated): 95.9%

## H-[dC]LDPKQKWIQC[Dap]-NH2 (disulfide 1-11; SMILES CC[C@H](C)[C@@H]1NC(=O)[C@H](Cc2c[nH]c3ccccc23)NC(=O)[C@H](CCCCN)NC(=O)[C@H](CCC(N)=O)NC(=O)[C@H](CCCCN)NC(=O)[C@@H]2CCCN2C(=O)[C@H](CC(=O)O)NC(=O)[C@H](CC(C)C)NC(=O)[C@H](N)CSSC[C@@H](C(=O)N[C@@H](CN)C(N)=O)NC(=O)[C@H](CCC(N)=O)NC1=O)
  purity (crude or final not stated): 96.6%

## H-[dC]LDPKQKWIQ[dC]-NH2 (disulfide 1-11; SMILES CC[C@H](C)[C@@H]1NC(=O)[C@H](Cc2c[nH]c3ccccc23)NC(=O)[C@H](CCCCN)NC(=O)[C@H](CCC(N)=O)NC(=O)[C@H](CCCCN)NC(=O)[C@@H]2CCCN2C(=O)[C@H](CC(=O)O)NC(=O)[C@H](CC(C)C)NC(=O)[C@H](N)CSSC[C@H](C(N)=O)NC(=O)[C@H](CCC(N)=O)NC1=O)
  purity (crude or final not stated): 94.1%
